Measurements: PubChem BioAssay AID330 (DTP/NCI, 2004)
The list does not hold the whole screen: it gathers tests that were run many times, whatever their T/C, doses with no T/C, and many T/C values between a quarter and a half above the control. Other doses and runs of a compound stand elsewhere. T/C: endpoint of the treated group in % of that of the vehicle group. Some doses have a count of surviving animals in place of a T/C: the source files T/C as zero there, which appears to mark a toxic dose or a test without result, not a measured value. Some doses without a T/C left all or most animals alive at the check, yet need not have been tolerated: survival well below the control is almost never listed, so the zero probably covers shortened survival too. Survivors were counted at the toxicity check, usually on the fifth day, unless a day is given; later deaths do not show. Schedule codes are those of the source, taken here to give the interval after Q, in days (D) or hours (H), and the number of doses after X. Some structures stand for samples that the source files as different forms (salt, stereo form or complex); doses refer to the form tested. Some doses were run more than once; the results are listed from low to high. Where survival is the endpoint, this PubChem deposit counts one and a half times the control or more as active, and values a quarter to a half above the control carry no call in these data; other NCI protocols may use other cut-offs. Some T/C values carry the count of animals alive at the toxicity check (mostly the fifth day); where none is given, no animal had died by that day. Additions like (4×) give the number of equal values in this list.

Test system: P388 leukemia ip, CD2F1 mice, survival T/C
Assay: NCI In Vivo Anticancer Drug Screen. Data for tumor model P388 Leukemia (intraperitoneal) in CD2F1 (CDF1) mice
Details: T/C endpoint: median survival time, higher T/C = longer survival
[1] = dose: 80.0 mg/kg/injection, schedule: Q01DX009 (ip), vehicle: distilled water + Tween-80

Q: For COc1cc(NCc2ccc3nc(N)nc(N)c3c2C)cc(OC)c1OC, which T/C (dose: 50.0 mg/kg/injection, schedule: Q01DX009 (oral), vehicle: sodium bicarbonate) is on record?
A: Its T/C is 144 % of control.

Q: And the T/C (dose: 60.0 mg/kg/injection, schedule: Q01DX005 (ip), vehicle: water)?
A: Its T/C is 144 % of control.

Q: What about the survivor count (dose: 60.0 mg/kg/injection, schedule: Q01DX005 (iv), vehicle: clinical formulation) of the same molecule?
A: Its survivor count is 0 of 8.

Q: And the survivor count (dose: 60.0 mg/kg/injection, schedule: Q01DX005 (iv), vehicle: water)?
A: The survivor count was 4 of 10.

Q: And the T/C (dose: 60.0 mg/kg/injection, schedule: Q01DX009 (ip), vehicle: distilled water + Tween-80, evaluated on day 30)?
A: The T/C was 157, 162, 164, 165 (2×), 168, 174, 182, 184 % of control.

Q: What about the T/C (dose: 60.0 mg/kg/injection, schedule: Q01DX009 (ip), vehicle: distilled water + Tween-80, evaluated on day 40) of the same molecule?
A: Its T/C is 172 % of control.

Q: What about the T/C (dose: 60.0 mg/kg/injection, schedule: Q01DX009 (ip), vehicle: distilled water + Tween-80, evaluated on day 45) of the same molecule?
A: The T/C was 158, 162, 170 % of control.

Q: And the T/C [1]?
A: The T/C was 181, 182, 183, 197, 205 % of control.

Q: What about the survivor count [1] of the same molecule?
A: Its survivor count is 6 of 6.

Q: And the survivor count (dose: 80.0 mg/kg/injection, schedule: Q01DX009 (ip), vehicle: sodium bicarbonate)?
A: Its survivor count is 6 of 6.

Q: And the survivor count (dose: 80.5 mg/kg/injection, schedule: Q01DX005 (iv), vehicle: water)?
A: The survivor count was 4 of 8.

Q: And the T/C (dose: 90.0 mg/kg/injection, schedule: Q01DX009 (ip), vehicle: distilled water + Tween-80, evaluated on day 30)?
A: Its T/C is 94, 148, 171, 175, 180, 184 [9 of 10 alive], 186 [9 of 10 alive], 200, 201 % of control.

Q: What about the T/C (dose: 90.0 mg/kg/injection, schedule: Q01DX009 (ip), vehicle: distilled water + Tween-80, evaluated on day 40) of the same molecule?
A: Its T/C is 189 % of control.

Q: And the T/C (dose: 90.0 mg/kg/injection, schedule: Q01DX009 (ip), vehicle: distilled water + Tween-80, evaluated on day 45)?
A: The T/C was 175, 177, 183 % of control.

Q: What about the survivor count (dose: 100.0 mg/kg/injection, schedule: Q01DX009 (oral), vehicle: sodium bicarbonate) of the same molecule?
A: The survivor count was 5 of 5.

Q: What about the survivor count (dose: 110.0 mg/kg/injection, schedule: Q01DX009 (ip), vehicle: distilled water + Tween-80) of the same molecule?
A: The survivor count was 3 of 10 and 6 of 6.

Q: And the survivor count (dose: 115.0 mg/kg/injection, schedule: Q01DX009 (ip), vehicle: distilled water + Tween-80)?
A: The survivor count was 7 of 10.

Q: What about the survivor count (dose: 120.0 mg/kg/injection, schedule: Q01DX001 (iv), vehicle: water) of the same molecule?
A: The survivor count was 0 of 10.

Q: And the survivor count (dose: 120.0 mg/kg/injection, schedule: Q01DX005 (ip), vehicle: water)?
A: Its survivor count is 2 of 10.

Q: What about the survivor count (dose: 120.0 mg/kg/injection, schedule: Q01DX005 (iv), vehicle: water) of the same molecule?
A: Its survivor count is 0 of 10.

Q: What about the survivor count (dose: 120.0 mg/kg/injection, schedule: Q01DX009 (ip), vehicle: water) of the same molecule?
A: Its survivor count is 10 of 10.

Q: What about the survivor count (dose: 120.0 mg/kg/injection, schedule: Q01DX009 (oral), vehicle: water) of the same molecule?
A: The survivor count was 8 of 10.

Q: And the survivor count (dose: 120.0 mg/kg/injection, schedule: Q03HX008 (ip), vehicle: water)?
A: The survivor count was 0 of 10.

Q: And the survivor count (dose: 120.0 mg/kg/injection, schedule: Q03HX024 (ip), vehicle: water)?
A: The survivor count was 1 of 10.

Q: What about the survivor count (dose: 130.0 mg/kg/injection, schedule: Q01DX009 (ip), vehicle: distilled water + Tween-80) of the same molecule?
A: Its survivor count is 3 of 10, 6 of 8, 9 of 10, 10 of 10.

Q: What about the survivor count (dose: 160.0 mg/kg/injection, schedule: Q01DX005 (ip), vehicle: Klucel (hydroxypropylcellulose) (HPC)) of the same molecule?
A: The survivor count was 6 of 6.

Q: And the survivor count (dose: 200.0 mg/kg/injection, schedule: Q01DX009 (oral), vehicle: sodium bicarbonate)?
A: The survivor count was 5 of 5 and 6 of 6.

Q: And the survivor count (dose: 240.0 mg/kg/injection, schedule: Q01DX001 (ip), vehicle: water)?
A: The survivor count was 0 of 10.

Q: And the survivor count (dose: 240.0 mg/kg/injection, schedule: Q01DX001 (iv), vehicle: water)?
A: Its survivor count is 0 of 10.

Q: What about the survivor count (dose: 240.0 mg/kg/injection, schedule: Q01DX005 (oral), vehicle: water) of the same molecule?
A: Its survivor count is 10 of 10.

Q: And the survivor count (dose: 240.0 mg/kg/injection, schedule: Q01DX009 (oral), vehicle: water)?
A: Its survivor count is 9 of 10.

Q: And the survivor count (dose: 240.0 mg/kg/injection, schedule: Q04DX003 (ip), vehicle: water)?
A: Its survivor count is 1 of 10.

Q: And the survivor count (dose: 400.0 mg/kg/injection, schedule: Q01DX009 (oral), vehicle: sodium bicarbonate)?
A: The survivor count was 4 of 6 and 6 of 6.

Q: What about the survivor count (dose: 480.0 mg/kg/injection, schedule: Q01DX001 (ip), vehicle: water) of the same molecule?
A: Its survivor count is 0 of 10.

Q: What about the survivor count (dose: 480.0 mg/kg/injection, schedule: Q01DX001 (iv), vehicle: water) of the same molecule?
A: The survivor count was 0 of 10.

Q: What about the survivor count (dose: 480.0 mg/kg/injection, schedule: Q04DX003 (ip), vehicle: water) of the same molecule?
A: The survivor count was 0 of 10.
